Results from article PMC6508501, “Conserved redox‐dependent DNA binding of ROXY glutaredoxins with TGA transcription factors”.
No constants are given. Whether binding was seen depends on the method and setting. Binding calls can cover weak binding; strength is not graded here. For some of these results: Sequences can lack the tags named with a protein. For some of these results: Binding seen in cells or lysates may run through a third protein. Values belong to the substance of their own block, whether it stands above or below them.

Experiments:
[1] = molecular target: T1, PAN (MBP fusion) (Arabidopsis thaliana) (UniProt Q9SX27); assay: native gel or EMSA; supershift of the PAN/as-1-like bands; A. thaliana ROXY1 protein (source not told) added to PAN and 6-FAM-labelled as-1-like oligonucleotide
T1 sequence: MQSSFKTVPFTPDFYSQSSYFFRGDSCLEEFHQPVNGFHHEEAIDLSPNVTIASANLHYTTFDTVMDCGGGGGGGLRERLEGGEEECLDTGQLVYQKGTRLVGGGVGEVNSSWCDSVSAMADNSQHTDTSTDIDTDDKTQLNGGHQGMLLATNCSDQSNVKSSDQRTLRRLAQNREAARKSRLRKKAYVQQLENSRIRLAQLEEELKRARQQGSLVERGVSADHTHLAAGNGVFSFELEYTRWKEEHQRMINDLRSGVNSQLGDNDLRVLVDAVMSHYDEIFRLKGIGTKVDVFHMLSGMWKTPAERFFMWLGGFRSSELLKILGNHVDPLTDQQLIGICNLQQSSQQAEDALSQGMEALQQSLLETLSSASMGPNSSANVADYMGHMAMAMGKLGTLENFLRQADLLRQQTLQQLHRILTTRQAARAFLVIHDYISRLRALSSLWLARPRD

[2] = molecular target: T2, BD-PAN (Arabidopsis thaliana) (UniProt Q9SX27); assay: two-hybrid; yeast; AD-MpROXY1/2 as prey, BD-MpTGA/PAN as bait; interaction strength quantified by ß-galactosidase reporter gene expression
T2 sequence: T1 sequence

[3] = molecular target: T1, PAN (MBP fusion) (Arabidopsis thaliana); assay: native gel or EMSA; supershift of the PAN/as-1-like bands; purified MBP-MpROXY1 or MBP-MpROXY2 added to PAN and 6-FAM-labelled as-1-like oligonucleotide; both purified
[4] = molecular target: T3, YC-PAN (Arabidopsis thaliana) (UniProt Q9SX27); assay: split reporter; BiFC; YN and YC fusions coinfiltrated by Agrobacterium into N. benthamiana leaf epidermis cells; nuclear YFP fluorescence four days later
T3 sequence: T1 sequence

binding [1]: binds
Substance: A. thaliana ROXY1 protein (EMSA) (Arabidopsis thaliana)

binding [2]: binds
Substance: AD-MpROXY1 (Marchantia polymorpha)

binding [2]: binds
Substance: AD-MpROXY2 (Marchantia polymorpha)

binding [3]: binds
Substance: MBP-MpROXY1 (Marchantia polymorpha)

binding [3]: binds
Substance: MBP-MpROXY2 (Marchantia polymorpha)

binding [4]: binds
Substance: YN-MpROXY1 (Marchantia polymorpha)

binding [4]: binds
Substance: YN-MpROXY2 (Marchantia polymorpha)
